Common to all, as to test: affinity purification with mass spectrometry
The target of test [1] is T1, MBD1, 2xStrep-HA-6xHis tagged (Arabidopsis thaliana) (UniProt Q5XEN5).
T1 sequence: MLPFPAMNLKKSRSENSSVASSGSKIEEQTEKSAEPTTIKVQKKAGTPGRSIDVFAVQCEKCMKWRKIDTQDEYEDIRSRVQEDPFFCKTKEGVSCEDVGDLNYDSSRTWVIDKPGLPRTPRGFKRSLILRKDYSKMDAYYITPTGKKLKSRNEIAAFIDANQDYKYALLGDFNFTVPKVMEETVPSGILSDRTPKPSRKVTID

Test [2] has as its target T1, MBD1, 2xStrep-HA-6xHis tagged (Arabidopsis thaliana). This is another data set of the same source.
The target in test [3] is T2, MBD4, 2xStrep-HA-6xHis tagged (Arabidopsis thaliana) (UniProt Q9LYB9).
T2 sequence: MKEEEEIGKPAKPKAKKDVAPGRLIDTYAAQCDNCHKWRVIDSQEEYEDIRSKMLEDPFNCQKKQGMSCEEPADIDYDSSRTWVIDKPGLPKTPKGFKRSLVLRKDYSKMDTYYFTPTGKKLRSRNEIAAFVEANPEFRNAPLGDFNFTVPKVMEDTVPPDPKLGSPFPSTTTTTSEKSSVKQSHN

Where two headings read alike, the source gives them in different places. No constants are given. Whether binding was seen depends on the method and setting. In cells and extracts the contact can be indirect. These calls come from enrichment with a bait or labelling near it, and not all partners need be listed. Where a sequence is shown, tags or fusion partners need not be part of it.

B1: UBN1 (protein, UniProt Q8RX78 1-684)
chain: MSEVNEMSGGSIGGELLRASPKVLTAGDRKLLKVELRPGDTTYVSWKKLMRDAGKVNGLSASVPDPPPNANPNLEFRIAPGHPVEIETNEQPHSNRFNAVIEKIERLYKGNDSSDGEELDGAPDDDEYDTEDSFIDDAELDEYFEVDNSTVKHDGFYVNRGKLERMEPSTTSNQQPKKRRRKDSAKPCRDAVDVSDKHTKLSITARKKDQSTAPGSWKTQESPLPSGAQDANTSVPLDDVKHSDRANHQSRNDTSHKSRETGSSSALHQKYSNKSLHQQSTSLLGKSPPNVFAEVTVVRQKENNGMHQLANVTGSRQSSQASKKDGSNVKSKTSILEKAIRELEKVVVESRPPAITENQEADTSSQAVKRRLPRDVKLKLAKVARIAQASQGKHSTELINRLMSIVGHLIQLRSLKRNLKIMIDMGDSATREKDTRFKQINNEVLDMIKAKVSLMESQAIKPEGATSDDFQDSVEKPSLKKFVMDAALEDKLCDLYDIFIDGLDEDQGPQTKKLYVNLAELWPNRLMDYRGIKHAIFRAKERRKALYGNLAKEMDQTKMKKSMKQLVPRTDCTAQPNTELVVQRQHSGEKKLIVDPNATSTSVVTSQTMVDRSNQQQPEKLKGISSSCNPTEETRVVKRKNEAVMAEKQVVLALKKPEHPQTRVIPAPQNLNIPRTTPDLNLPS
Regarding B1, the binding result in test [1] and in test [2] was “binds” throughout.

B2: HIRA (protein, UniProt Q9LXN4 1-1024)
chain: MIAEKPFWVKHEGLQIFSIDVQPNGERFATGGGDHKVRIWNMKSVDKDLQNIDTKERLLATLRDHFGSVNCVRWAKNSRYVASGSDDQVIQIHERKPGSGTTEFGSGEAPDVENWKAVMTLRGHTADVVDLNWSPDDSMLASGSLDNTVHIWNMRTGMCTTVLRGHLSLVKGVTWDPIGSFIASQSDDKTVIIWRTSDWGMAHRTDGHWAKSLGSTFFRRLGWSPCGHFLTTTHGFQKPKHSAPVLERGEWSVAYDFLGHSAPIIVVRFNHSMFKRIPSSTHETKQVGWSNGTSKSGEKDLQSYNVIAMGSQDRTITVWTTGSARPLFVAKHFFGQSVVDLSWSPDGYSLFACSLDGTVAMIHFDPKELGVRLTDTELDELKKSRYGDVRGRQANLVESPAQLLLETASTKQAGSKRAASDVQQNQVTTKPSVSVESTAKRRKSQVDDRNKAAESTGQTLNKASTLNRVSSPVNQKVYRRPDGRKRIIPEAVGVPQQENNIMINGESHNFLPASAAAPAKGDSGDFPVEISNRDLSGKEIVCRNPDLKERSRITARATITESLVIEKVPGTSGRDGVLNVEQSVGIKESSSTDLLIRVFDWKDGEAAPPVCLEACPREHALDTVGAVSTSMVKETEISCKKSGETLWSDRIMGRVTVLAGNPNFWAAGCEDGSLQVYTKCGRRAMPTMMMGSAATFIDCDDSWKLLLVTRKGSLYVWDLFNRKCVLHDSLSSLVSSDVNLSSTVKGTIKVISVKLSKSGSPLVVLATRHAFLFDTSLMCWLRVADDCFPASNFSSSWNLGSAPCGELAGLQVDVRKYMARKPGWNRITDDGTQTRAHLESQLASSLALESPNEYRQCLLAYVRFLAREADESRLREVCESFLGPPTGMAEAASSDTNLSWDPYVLGVKKHKLLRNDILPAMASNRKVQRLLNEFIDLLSEYEDVETADPAPKGSTPTMNCGGVPSSLDQIGSDPPAMTATTPMTIDNDKPVSLENPAALDIGVCEKTGSEDRDKQDQNSRDSGS
With B2, the binding result in test [1] is recorded as “binds”.

B3: UBN2 (protein, UniProt F4I700 1-717)
chain: MEDEPKLPTDDGPTFNESCKISSEILTAGDRKLLKVELLKEETTLVSWKKLMDEASKENGGLFVSAPERLLNANPNLEFRLAPGAQTENEMVNQPHPNRLNSVIAKIERLYMGKDGSDGEELDGAPDDDDYDTEDSFIDDAELDEYFEVDNSPIKHDGFFVNRGKLERIEPSATSNQQQPKKRRRKESAKPCGDVVDVSRKRAKMAKTAGGKDQSASPGPSSKKISNDSKTVQDSFSPLKAQNGNDSLVLENVKHTDKANHQPMNATSPKSKAAGSSGPLHPKCSSKSVHEQSNSPPGKSRPNVSAKSAVVRQQVNNGMPDLDIATESKTSIQISKKSGSNGRPKYSTLEKAIRNLEKLVAESRPPAATENQDADISSQAVKRGLPGDVKLHLAKVARIAYASQGEISGELINRLMGIVGHLIQIRSLKRNLKIMIDSIVTANREKDTRFQRIKSEITEMLKTQVPLVESQETNQEAGTSDDFQDVGSLGKSPVKKFVMDVALEEKLCDLYDVFVEGMDEHSGSQIRKLYSDLAQLWPNSLVDNHEIRRAICREKERRRALEGNIGKEMDQTKITKKKQTQLVPKSEGITYPDKTSGVEVKASVVLTATTTSLVDCQPAADSSFERSKQQHEKLKRTSSLSNPAAEGKKVRRKTEPALEETHLPAEKPLVLALKRQTHLKSKTHKQVQVHPQSKAHKQAQVHPKAKTQTPPDLNLPS
Turning to B3, the binding entry in test [1] was “binds”.

B4: HUA2 (protein, UniProt Q9XER9 1-1392)
chain: MAPGRKRGASKAKAKGQLVLGDLVLAKVKGFPAWPAKISRPEDWDRAPDPKKYFVQFFGTEEIAFVAPPDIQAFTSEAKSKLLARCQGKTVKYFAQAVEQICTAFEGLQNHKSNALGDEDSLDATEPGLTKAEIVDGTDHIVIESERTDNFNFRVDPCFPKLDENNGEERKAEIRKLDSSSFLESKVKTTSPVSESLEHSSFDPKIKKEDFDKGTDGSACNEHFGNGQKKLANGKRIKKEAGGSDRKGEDTVHRDKSNNSHVPGGRTASGNSDSKKSKGLLTEKTSSKVSADKHENSPGIKVGVSGKKRRLESEQGKLAPRVDESSRAAKKPRCESADNKVKCEIDDGSDSTGTVSDIKREIVLGLGARGGNFQYDKEAVAYTKRQRQTMEHATSPSFSGSRDKSGKGHLEQKDRSSPVRNVKAPAAQSLKKRRAVCIYDEDDDEDPKTPLHGKPAIVPQAASVLTDGPKRANVCHSTSTKAKISAGSTESTEVRKFPLRKHCEDASRVLPSNAENSTNSLPVVKPINELPPKDVKQILQSPKMSPQLVLTNKHVAGQHKVVKSSVKVSGVVMAKKPQSDSCKEAVAGSDKISSSQSQPANQRHKSASVGERLTVVSKAASRLNDSGSRDMSEDLSAAMLDLNREKGSATFTSAKTPDSAASMKDLIAAAQAKRKLAHTQNSIFGNLNPSFLSISDTQGRSHSPFMVQNASASAAISMPLVVQGHHQQGSSPSNHGHQSLSRNQIETDDNEERRLSSGHKSVGGSLSCSTEAAISRDAFEGMLETLSRTRESIGRATRLAIDCAKYGLASEVVELLIRKLESESHFHRKVDLFFLVDSITQHSHSQKGIAGASYVPTVQAALPRLLGAAAPPGTGASDNRRKCLKVLKLWLERKVFPESLLRRYIDDIRASGDDATGGFSLRRPSRSERAVDDPIREMEGMLVDEYGSNATFQLPGFFSSHNFEDDEEDDDLPTSQKEKSTSAGERVSALDDLEIHDTSSDKCHRVLEDVDHELEMEDVSGQRKDVAPSSFCENKTKEQSLDVMEPVAEKSTEFNPLPEDSPPLPQESPPPLPPLPPSPPPPSPPLPPSSLPPPPPAALFPPLPPPPSQPPPPPLSPPPSPPPPPPPPSQSLTTQLSIASHHQIPFQPGFPPPTYPLSHQTYPGSMQQDRSSIFTGDQIVQGPGNSSRGGLVEGAGKPEYFVQQSSSFSPAGVCSSREPSSFTSSRQLEFGNSDVLFNPEASSQNHRFQPSTPLSQRPMVRLPSAPSSHFSYPSHIQSQSQHSYTHPYPFPPQRDDARRYRNEEPWRIPSSGHSAENQNGAWIHGRNSHPGLPRVTDSFFRPPPERPPSGTMNYQPSAASNLQAVPAIPGHTAPQMLPSRPDIPTVNCWRPA
Take B4: the binding result in test [1], in test [2] and in test [3] was “binds” each time.

B5: HAT3.1 (protein, UniProt Q04996 1-723)
chain: MYKAVSKRVTRSSGSGLKQTNVDNGGEISPTVDRVSEQGKSSEAGSHMPTDANGNGHLHHEIMDHGKGNEEQKPTPQTVKKDSNTNTKFSGSHRELVIGLPCRGQFEIHNRSRASTSSKRLGGGGERNVLFASHKRAQRSKEDAGPSSVVANSTPVGRPKKKNKTMNKGQVREDDEYTRIKKKLRYFLNRINYEQSLIDAYSLEGWKGSSLEKIRPEKELERATKEILRRKLKIRDLFQHLDTLCAEGSLPESLFDTDGEISSEDIFCAKCGSKDLSVDNDIILCDGFCDRGFHQYCLEPPLRKEDIPPDDEGWLCPGCDCKDDSLDLLNDSLGTKFSVSDSWEKIFPEAAAALVGGGQNLDCDLPSDDSDDEEYDPDCLNDNENDEDGSDDNEESENEDGSSDETEFTSASDEMIESFKEGKDIMKDVMALPSDDSEDDDYDPDAPTCDDDKESSNSDCTSDTEDLETSFKGDETNQQAEDTPLEDPGRQTSQLQGDAILESDVGLDDGPAGVSRRRNVERLDYKKLYDEEYDNVPTSSSDDDDWDKTARMGKEDSESEDEGDTVPLKQSSNAEDHTSKKLIRKSKRADKKDTLEMPQEGPGENGGSGEIEKSSSSACKQTDPKTQRLYISFQENQYPDKATKESLAKELQMTVKQVNNWFKHRRWSINSKPLVSEENVEKLKTGKEGECETSVAGSSKQTMETESVAEKPTNTGSRKRRRK
With B5, the binding result in test [1], in test [2] and in test [3] was “binds” throughout.

The values are drawn from doi:10.1101/2023.12.05.570080.
